From US7919580B2, “Polysaccharide-protein binding model and nano-fibril formation of a starch binding domain” (priority 2008, dated 2011)

Assays:
[1] = Thioflavin T fluorescence (ThT) assay for fibril formation; assay type: physicochemical; conditions: for fibril formation (ThT fluorescence emission at 482 nm): peptide pretreated at 37° C.; for fibril formation (ThT fluorescence intensity at 482 nm): CT-14 variants, 37° C. for 72 h
Experimental: Purified SBDs or synthetic peptides were dissolved in 10 mM sodium-citrate or phosphate-citrate buffer to a final concentration of 100 μM (at indicated pH). […] The measurements were recorded in a Perkin Elmer LS-55 spectrofluorometer at 25° C.
The relative fluorescence, peaked at 482 nm, subtracted from the background of buffer from the total fluorescence were measured as the amount of fibrillar aggregates with the excitation wavelength (slit width=4 nm) set at 450 nm and monitoring emission wavelength (slit width=8 nm) set at from 470 to 630 nm.

[2] = Atomic force microscopy of CT-14 fibrils; assay type: physicochemical

| Substance | fibril formation (ThT fluorescence intensity at 482 nm) [1] | other results |
| --- | --- | --- |
| CT-13: synthetic C-terminal near-end portion of SBD (DNNNSANYQVSTS; SITE (1)..(13); listed as Rhizopus oryzae) | – | fibril formation (ThT fluorescence emission at 482 nm) [1]: not ThT-positive |
| CT-14 (S5A): synthetic CT-14 peptide analog S5A (DNNNAANYQVSTSK; Mutant CT-14 peptides.) | increase in fluorescence intensity at 482 nm similar to the wild type CT-14 peptide | – |
| CT-14: synthetic peptide corresponding to the last fourteen C-terminal residues of SBD (residues 95-108) (DNNNSANYQVSTSK; SITE (1)..(14); listed as Rhizopus oryzae) | – | ThT emission fluorescence intensity at 482 nm ([1]; 10 mM sodium-citrate or phosphate-citrate, pH 3.5): attenuated emission fluorescence intensity at 482 nm; fibril formation (ThT fluorescence at 482 nm) ([1]; Tris buffer, pH above 8.0, 72 h (data not shown)): abolished fibril formation; ThT fluorescence intensity ([1]; pH 4.5, 5.5, or 6.5): stronger than that at pH 3.5; fibril formation (ThT fluorescence emission at 482 nm) [1]: formed amyloid-like fibrils; fibril formation (ThT fluorescence) ([1]; phosphate-citrate buffer, pH 2.0, 2.5, and 3.0): no fibril formation; fibril morphology by AFM ([2]; 0 h): only spherical structures were observed; fibril morphology by AFM ([2]; 37° C. for 6 h): small protofibrils started to form; length of mature fibrils by AFM ([2]; 37° C., 12 h): > 200 nm; fibril morphology by AFM ([2]; 37° C., 24 h): fibril aggregation occurred along with an elongation step |
| CT-14 (N4A): synthetic CT-14 peptide analog N4A (DNNASANYQVSTSK; Mutant CT-14 peptides.) | none | – |
| CT-14 (D1K): synthetic CT-14 peptide analog D1K (KNNNSANYQVSTSK; Mutant CT-14 peptides.) | none | – |
| CT-14 (Y8A): synthetic CT-14 peptide analog Y8A (DNNNSANAQVSTSK; Mutant CT-14 peptides.) | none | – |
| CT-12′: synthetic C-terminal near-end portion of SBD (NNNSANYQVSTS; SITE (1)..(12); listed as Rhizopus oryzae) | – | fibril formation (ThT fluorescence emission at 482 nm) [1]: not ThT-positive |
| CT-14 (V10A): synthetic CT-14 peptide analog V10A (DNNNSANYQASTSK; Mutant CT-14 peptides.) | increase in fluorescence intensity at 482 nm similar to the wild type CT-14 peptide | – |
| CT-14 (D1A): synthetic CT-14 peptide analog D1A (ANNNSANYQVSTSK; Mutant CT-14 peptides.) | none | – |
| CT-13′: synthetic C-terminal near-end portion of SBD (NNNSANYQVSTSK; SITE (1)..(13); listed as Rhizopus oryzae) | – | fibril formation (ThT fluorescence emission at 482 nm) [1]: not ThT-positive |
| CT-14 (K14A): synthetic CT-14 peptide analog K14A (DNNNSANYQVSTSA; Mutant CT-14 peptides.) | none | – |
| CT-14 (Q9A): synthetic CT-14 peptide analog Q9A (DNNNSANYAVSTSK; Mutant CT-14 peptides.) | none | – |
| CT-14 (T12A): synthetic CT-14 peptide analog T12A (DNNNSANYQVSASK; Mutant CT-14 peptides.) | increase in fluorescence intensity at 482 nm similar to the wild type CT-14 peptide | – |
| CT-14 (K14D): synthetic CT-14 peptide analog K14D (DNNNSANYQVSTSD; Mutant CT-14 peptides.) | none | – |
| CT-14 (N3A): synthetic CT-14 peptide analog N3A (DNANSANYQVSTSK; Mutant CT-14 peptides.) | none | – |
| CT-14 (D1A+K14A): synthetic CT-14 peptide analog D1A+K14A (ANNNSANYQVSTSA; Mutant CT-14 peptides.) | none | – |
| CT-14 (S11A): synthetic CT-14 peptide analog S11A (DNNNSANYQVATSK; Mutant CT-14 peptides.) | increase in fluorescence intensity at 482 nm similar to the wild type CT-14 peptide | – |
| CT-14 (N7A): synthetic CT-14 peptide analog N7A (DNNNSAAYQVSTSK; Mutant CT-14 peptides.) | none | – |
| CT-14 (S13A): synthetic CT-14 peptide analog S13A (DNNNSANYQVSTAK; Mutant CT-14 peptides.) | increase in fluorescence intensity at 482 nm similar to the wild type CT-14 peptide | – |
| CT-14 (D1K+K14D): synthetic CT-14 peptide analog D1K+K14D (KNNNSANYQVSTSD; Mutant CT-14 peptides.) | increase in fluorescence intensity at 482 nm similar to the wild type CT-14 peptide | – |
| CT-14 (N2A): synthetic CT-14 peptide analog N2A (DANNSANYQVSTSK; Mutant CT-14 peptides.) | none | – |

Some entries repeat one wording, which the source may state once for all of them.
